## Results of single-concentration screens

By UniProt entry, the sequences of proteins in these tests, tags left out. Residues count along the entry.
UniProt A4I591, 1-473: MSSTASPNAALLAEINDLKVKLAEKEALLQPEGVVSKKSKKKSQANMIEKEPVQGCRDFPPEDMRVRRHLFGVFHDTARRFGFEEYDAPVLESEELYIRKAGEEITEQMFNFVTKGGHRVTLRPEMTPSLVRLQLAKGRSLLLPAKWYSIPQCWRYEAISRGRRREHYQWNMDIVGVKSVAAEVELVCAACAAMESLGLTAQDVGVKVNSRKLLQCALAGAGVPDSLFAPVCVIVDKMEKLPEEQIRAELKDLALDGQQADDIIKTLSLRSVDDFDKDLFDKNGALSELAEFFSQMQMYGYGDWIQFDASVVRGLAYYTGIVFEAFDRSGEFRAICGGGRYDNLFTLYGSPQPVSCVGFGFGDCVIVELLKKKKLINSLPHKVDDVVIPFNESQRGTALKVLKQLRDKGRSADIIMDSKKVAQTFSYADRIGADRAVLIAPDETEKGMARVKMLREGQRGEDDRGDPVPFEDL
UniProt I6X8D2, whole entry: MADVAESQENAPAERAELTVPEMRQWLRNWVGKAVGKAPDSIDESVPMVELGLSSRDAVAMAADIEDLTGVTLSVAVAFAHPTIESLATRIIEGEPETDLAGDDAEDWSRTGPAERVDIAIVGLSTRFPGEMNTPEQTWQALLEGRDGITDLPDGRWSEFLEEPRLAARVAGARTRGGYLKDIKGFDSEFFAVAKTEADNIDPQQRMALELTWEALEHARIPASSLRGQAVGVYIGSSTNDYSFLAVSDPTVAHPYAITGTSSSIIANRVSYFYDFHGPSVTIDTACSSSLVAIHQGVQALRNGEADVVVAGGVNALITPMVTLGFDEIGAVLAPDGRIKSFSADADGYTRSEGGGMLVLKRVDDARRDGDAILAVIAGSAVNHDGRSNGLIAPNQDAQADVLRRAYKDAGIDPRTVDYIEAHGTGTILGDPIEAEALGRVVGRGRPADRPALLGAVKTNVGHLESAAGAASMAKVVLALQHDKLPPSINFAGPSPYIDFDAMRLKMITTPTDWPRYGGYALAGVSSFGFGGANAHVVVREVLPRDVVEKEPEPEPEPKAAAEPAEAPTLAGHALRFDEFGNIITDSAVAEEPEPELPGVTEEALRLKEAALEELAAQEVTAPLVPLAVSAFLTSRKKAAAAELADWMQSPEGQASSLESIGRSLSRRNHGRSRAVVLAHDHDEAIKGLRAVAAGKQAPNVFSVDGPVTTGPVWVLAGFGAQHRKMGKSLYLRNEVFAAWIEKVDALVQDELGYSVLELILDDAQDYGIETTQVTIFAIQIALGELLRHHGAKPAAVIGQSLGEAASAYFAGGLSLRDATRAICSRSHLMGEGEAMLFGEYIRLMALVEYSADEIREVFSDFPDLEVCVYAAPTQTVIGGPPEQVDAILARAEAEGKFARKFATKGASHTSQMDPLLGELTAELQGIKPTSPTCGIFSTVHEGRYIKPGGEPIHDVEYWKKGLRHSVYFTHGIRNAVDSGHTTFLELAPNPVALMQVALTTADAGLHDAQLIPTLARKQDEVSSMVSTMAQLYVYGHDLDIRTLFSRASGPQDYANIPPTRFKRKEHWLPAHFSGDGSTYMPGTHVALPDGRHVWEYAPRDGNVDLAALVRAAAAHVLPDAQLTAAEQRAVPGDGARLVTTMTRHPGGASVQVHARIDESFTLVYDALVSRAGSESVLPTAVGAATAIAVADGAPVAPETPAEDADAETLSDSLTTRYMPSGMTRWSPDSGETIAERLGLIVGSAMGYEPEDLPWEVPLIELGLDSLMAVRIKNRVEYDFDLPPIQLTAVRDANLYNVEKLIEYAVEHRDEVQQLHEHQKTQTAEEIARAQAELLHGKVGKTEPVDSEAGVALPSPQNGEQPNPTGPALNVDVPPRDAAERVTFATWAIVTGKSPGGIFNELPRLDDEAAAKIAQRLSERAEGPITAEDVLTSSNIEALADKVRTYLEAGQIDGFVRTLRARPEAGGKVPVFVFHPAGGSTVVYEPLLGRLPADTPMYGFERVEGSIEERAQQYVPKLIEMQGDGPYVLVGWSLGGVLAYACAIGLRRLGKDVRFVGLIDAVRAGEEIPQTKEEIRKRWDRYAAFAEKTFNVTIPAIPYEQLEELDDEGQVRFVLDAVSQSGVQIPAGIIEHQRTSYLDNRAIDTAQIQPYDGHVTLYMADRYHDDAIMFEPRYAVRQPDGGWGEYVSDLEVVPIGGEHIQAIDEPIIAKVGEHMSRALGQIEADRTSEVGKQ

Data taken from ChEMBL document CHEMBL3988442, “University of Dundee, Small-Polar-MMV Screening Library” (2021).

Leishmania in macrophages: 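Cell assay of Leishmania donovani living inside macrophages; the read-out is not stated. Tested at 30 µM. The record gives no direction; compounds that gave an IC50 in retests scored well above the rest, so higher reads as stronger inhibition. Of about 69,000 compounds tested this way, about 1,000 (1.5%) reached 50% or more in at least one test.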
LiHisRS: 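Histidine-tRNA ligase, Leishmania infantum (UniProt A4I591). Enzyme assay of histidyl-tRNA synthetase; the read-out is not stated. Compounds at 30 µM. Direction is inferred from retests: higher values go with stronger inhibition. The assay is labelled LdHisRS but filed under L. infantum. About 69,000 compounds were tested under these conditions; 0.6% (about 410) showed 50% or more at least once.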
Pks13 thioesterase: 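Polyketide synthase Pks13, Mycobacterium tuberculosis (UniProt I6X8D2). Enzyme assay of the thioesterase domain of polyketide synthase 13; the read-out is not stated. Compounds at 30 µM. The record gives no direction; the compounds picked for IC50 retests had high values, so higher reads as stronger inhibition. Size under these conditions: about 67,000 compounds, about 300 of them at 50% or above in at least one test.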

Results are given as percent effect.
How 0% and 100% were set is not recorded. Most values in the screen are low, and negative values occur.
This is an unselected part of the compounds tested.
Two or more numbers in one place are separate tests of the same structure; such repeats can differ widely.
A dash means the value is not listed here; it may have been measured.

compound	Leishmania in macrophages	LiHisRS	Pks13 thioesterase
O=C(O)C(F)(F)F.[H][C@@]12CCN(Cc3c(C)noc3C)C[C@@]1([H])[C@H](C(=O)NCC1CC1)CCO2	-43.09%	-	-
CC(C)c1ncc2c(n1)CN(Cc1nc(-c3ccco3)no1)CC2	19.24%	35.71%	19.73%
O=C(O)C(F)(F)F.[H][C@]12CN(c3ccccc3)C(=O)[C@@]1([H])CN(C1CCOC1)C2 (some centres unmarked)	-4.618%	-	-
O=C1NC2(CCN(C(=O)c3ccc(Cl)cn3)CC2)CC1c1ccccc1 (centres unmarked)	-30.74%	21.21%	-25.94%
Cc1cc(C)c(C#N)c(NCCn2cnnc2C(C)C)n1	-13.31%	3.529%	6.721%
Cc1ccccc1CN1CCN(c2ncnc3c2NC(=O)CN3)CC1	-2.013%	16.05%	-5.536%
Cc1cn(-c2ccccc2)nc1NS(=O)(=O)c1cccc(C(=O)O)c1	-2.685%	9.615%	22.15%
CN(CC(F)(F)F)C(=O)CNC(=O)N1CCCC(N(C)C)C1 (centres unmarked)	5.799%	7.143%	-0.3451%
CCc1cnc(N2CCC(=O)N(CC3CC3)C(C(C)C)C2)nc1 (centres unmarked)	32.11%	15.38%	-19.54%
Cc1ccc(CN(Cc2c[nH]cn2)C2CC(C)(C)NC(C)(C)C2)o1	-	2.778%	-46.39%
NC[C@H]1CC[C@H](C(NC(=O)c2ccccn2)c2ccccn2)CC1 (some centres unmarked)	19.04%	22.86%	-12.03%
CC(=O)N1CCOCC(Cc2ccc3c(ccn3C)c2)C1 (centres unmarked)	26.41%	21.13%	34.09%
OCC(CO)N1CCCC(Cc2ccnc(Nc3ccccn3)c2)C1 (centres unmarked)	16.22%	20.29%	8.401%
[H][C@@]12OCCN(S(=O)(=O)C3CC3)[C@@]1([H])CC[C@H]2OCC1CC1	-3.095%	-	-
Brc1csc(-c2noc(C3COCCO3)n2)c1 (centres unmarked)	18.98%	18.57%	-13.75%
Cc1nc[nH]c1CN1CCN(C2CCOCC2)CC(C(N)=O)C1 (centres unmarked)	17.2%	8%	3.947%
O=C(c1ccc(Cl)cc1)N1CCC(N2CCOC2=O)CC1	5.954%	5.517%	-
Cc1ccc(CN2CC(C(=O)N3CCCC3)C3(CCOCC3)C2)s1 (centres unmarked)	-	7.547%	-12%
Clc1ccc(C2(CNC3=NCCN3)CC2)cc1.I	19.22%	-	-
COc1cccc2c1OCC(C(=O)N(C)CCCc1cnn(C)c1)C2 (centres unmarked)	8.233%	11.54%	-7.457%
Cc1cc(C(C)NC(=O)c2cnc3onc(C)c3c2)c(C)o1 (centres unmarked)	37.53%	26.76%	-
Clc1cccc(-n2cnnn2)c1N1CCOCC1	-5.133%	7.965%	-8.211%
COc1ccc(CCC(=O)NCc2cc(C)on2)cc1	5.023% & 15.7%	8.696%	20.46%
CC(C)NC(=O)NC(C)c1ccc(-c2ccncc2)cc1 (centres unmarked)	10.45%	9.821%	-4.252%
CC(CN1CCOCC1)NC(=O)Nc1cccnc1-n1cccn1 (centres unmarked)	5.906%	10.42%	-15.65%
CC(C)Oc1ccc(C(O)CNCc2ccccc2C(F)(F)F)cc1 (centres unmarked)	30.31%	14.71%	-12.44%
Cc1n[nH]c(C)c1-c1cnc(CC2CCN(C(C)C)CC2)cn1	13.14% & 34.59%	9.474%	-3.168%
COCCCN(Cc1cnc(N2CCCC2)nc1)C1CCN(C)CC1	9.255%	0%	-10.57%
O=C(c1ccsc1)N1CCC2(CC1)CCN(S(=O)(=O)C1CC1)CC2	6.484%	19.8%	-7.877%
N#Cc1ccccc1C(=O)Nc1cccc(CN2CCC(CO)CC2)c1	1.185%	15.96%	-11.72%
CC(=O)N1CCN(Cc2ccc(C(F)(F)F)c(F)c2)CC(O)C1 (centres unmarked)	20.37%	4.167%	3.406%
O=S(=O)(Nc1cnc(N2CCOCC2)nc1)c1ccc(C(F)(F)F)cc1	38.09%	11.86%	-20.21%
[H][C@@]12CN(C(=O)c3cccn3C)C[C@]1([H])C(=O)N(CCN1CCCC1)C2	13.63%	-	-
Cc1nc(CN2CCN(C(=O)c3sccc3C3CC3)CC2)oc1C	-23.69%	11.5%	-23.23%
Cc1cnn(CC2CCCN2C(=O)Cc2c(C)noc2Cl)c1 (centres unmarked)	1.483%	9.589%	-26.06%
CC1(C)CC(N(Cc2ccccc2)Cc2ncc[nH]2)CC(C)(C)N1	-	8.633%	-5.163%
COCC1CN(C(=O)C2=CCCC2)Cc2cnn(CC3CC3)c21 (centres unmarked)	9.437% & 26.32%	9.735%	-40.33%
CCn1c(=O)c2sccc2n(CC(=O)Nc2cccc(Cl)c2)c1=O	-6.285%	8.276%	-45.28%
CC(CNCc1ccc(Br)cc1)Oc1ccccn1.Cl (centres unmarked)	-11.19%	-	-
Cc1ncc(Cl)c(C(=O)N2CCCC(n3nc(C)nc3C)C2)n1 (centres unmarked)	-0.3058%	3.67%	-19.46%
CC(C)Cc1cc(CNC(=O)c2cccc3c2NCCC3)no1	15.34%	6.667%	15.77%
Cc1nc2cc(F)cc(C(=O)N3CCN(CC(C)O)CC3)c2nc1C (centres unmarked)	-26.15%	11.61%	-11.22%
O=C(c1cc(Br)ccc1-n1cnnn1)N1CCCC1	-37.71%	19.57%	1.504%
CS(=O)(=O)N1CCN(Cc2c(O)ccc3oc4c(c23)CCCC4)CC1	3.382%	15%	-15.7%
Cc1nccc(C2CN(Cc3cc[nH]n3)CCO2)n1 (centres unmarked)	23.32%	5.556%	-42.9%
CN(C)S(=O)(=O)NCc1cccnc1Oc1ccccc1	3.171%	2.151%	-10.27%
CCc1cc(CN(C)C(=O)c2cc(=O)[nH]c(=O)[nH]2)on1	53.82%	21.43%	2.669%
Cc1c(-c2nnc(SCC(=O)O)n2C(C)c2ccccc2)cnn1C (centres unmarked)	11.25%	26.03%	-39.82%
COCCC(=O)NCCc1nc(N(C)C)ncc1-c1ccncc1	6.401%	10.07%	19.32%
CCCc1nnsc1C(=O)NCC(O)c1ccc(SC)cc1 (centres unmarked)	-18.46%	8.602%	15.24%
O=C(O)C(F)(F)F.O=C(O)C(F)(F)F.[H][C@@]12CN(Cc3cccc(F)c3)C[C@]1([H])CN(Cc1ccccn1)C2	15.87%	-	-
CCc1nc(C2CCCN2CC(=O)Nc2cc(C)nn2C)no1 (centres unmarked)	13.48%	17.24%	-15.37%
Cc1ncc(C(=O)Nc2cncnc2N(C)C)c(Cl)c1Cl	-4.777%	0.8929%	2.57%
C[C@H]1CN2C[C@H](O)CC2CN1Cc1ccc2nccnc2c1 (some centres unmarked)	-	2.817%	-2.344%
c1cnn(-c2ccc(CCNC3CCN(C4CC4)C3)cc2)c1 (centres unmarked)	-4.355%	25%	-2.174%
CCOc1ccc(NC(=O)CN2CCN(c3nccn3C)CC2)cc1	22.9%	24.27%	-3.237%
Cc1cc(C(F)(F)F)cc(=O)n1CCCn1cnnn1	-106.6%	12.5%	12.81%
O=C(O)C(F)(F)F.c1cc(CN2Cc3nnn(CC4CC4)c3C(COCC3CC3)C2)co1 (centres unmarked)	16.3%	-	-
O=C1CC(c2ccco2)c2sc(C(=O)O)c(-c3ccccc3)c2N1 (centres unmarked)	41.53%	91.43%	65.61%
CCN(CC)c1ccc(C(=O)NCC2(C(N)=O)CCOCC2)cn1	14.81%	5%	1.922%
[H][C@@]12C[C@H](C(=O)NCC3CC3)[C@@]([H])(CN(C(=O)NCC3CCCCC3)C1)O2	-10.89%	-	-
Cc1scc(C(=O)N2CCC3(CC(=O)NC3=O)C2)c1-c1ccccc1 (centres unmarked)	29.9%	26.92%	-10.36%
Cc1cc(C)cc(OCCN(C)C2CCOC2=O)c1 (centres unmarked)	13.45%	12%	-15.4%
CNC(=O)N1Cc2cc(F)ccc2C2(CCN(C)CC2)C1	-	-3.419%	-
O=C(O)C(F)(F)F.O=C1COC2(CCN(Cc3nccs3)CC2)CN1CC1CC1	-14.54% & -5.141%	-	-
Cc1csc(N2CCN(C3CCc4ccccc4C3)CC2)n1 (centres unmarked)	-10.26%	12.24%	23.25%
[H][C@@]12CCN(C(=O)c3ccnnc3)C[C@@]1([H])O[C@H](c1nc(C)cs1)C2	6.215%	-	-
O=S(=O)(Cc1ccccc1)NCCc1nnc2n1CCC2	26.17% & 5.124%	15.79%	0.7422%
Cc1nn2cccnc2c1C(=O)NCc1ccccc1OCC1CC1	-2.899%	22.22%	-9.41%
O=C(CCC(=O)N1CCC(Cc2ccc(CO)cc2)C1)c1ccccc1 (centres unmarked)	19.76%	12.12%	-46.59%
COc1ccc(C(=O)N2CCC(c3nccn3C(C)C)CC2)cc1OC	7.42%	15.2%	-20.86%